# Measurements as given in paper doi:10.1101/2020.05.10.086702.
# Results are given in words; binding and its absence hold for the method and conditions named. Binding seen in cells or lysates may run through a third protein. Some results given as binding are weak or reduced against the parent protein; the word gives no strength. Sequences can lack the tags named with a protein.
# T1: Cep57L1 mutant lacking the PINC motif (Δ52-86 a.a.), FLAG-tagged (human) (UniProt Q8IYX8)
# T1 sequence: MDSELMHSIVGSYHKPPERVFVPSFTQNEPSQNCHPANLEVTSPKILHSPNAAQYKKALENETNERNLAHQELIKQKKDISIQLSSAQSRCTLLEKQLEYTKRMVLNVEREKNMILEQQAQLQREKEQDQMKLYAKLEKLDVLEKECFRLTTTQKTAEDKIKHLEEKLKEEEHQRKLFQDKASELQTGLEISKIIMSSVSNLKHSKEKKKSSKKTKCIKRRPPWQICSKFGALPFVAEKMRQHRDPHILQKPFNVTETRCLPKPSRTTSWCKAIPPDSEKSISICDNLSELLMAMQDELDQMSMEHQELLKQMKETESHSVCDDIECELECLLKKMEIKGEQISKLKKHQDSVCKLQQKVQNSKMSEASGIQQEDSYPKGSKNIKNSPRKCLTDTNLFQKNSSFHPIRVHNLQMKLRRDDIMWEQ
# T2: Cep57L1 (centrosomal protein 57 kDa-like protein 1), full length, FLAG-tagged (human) (UniProt Q8IYX8)
# T2 sequence: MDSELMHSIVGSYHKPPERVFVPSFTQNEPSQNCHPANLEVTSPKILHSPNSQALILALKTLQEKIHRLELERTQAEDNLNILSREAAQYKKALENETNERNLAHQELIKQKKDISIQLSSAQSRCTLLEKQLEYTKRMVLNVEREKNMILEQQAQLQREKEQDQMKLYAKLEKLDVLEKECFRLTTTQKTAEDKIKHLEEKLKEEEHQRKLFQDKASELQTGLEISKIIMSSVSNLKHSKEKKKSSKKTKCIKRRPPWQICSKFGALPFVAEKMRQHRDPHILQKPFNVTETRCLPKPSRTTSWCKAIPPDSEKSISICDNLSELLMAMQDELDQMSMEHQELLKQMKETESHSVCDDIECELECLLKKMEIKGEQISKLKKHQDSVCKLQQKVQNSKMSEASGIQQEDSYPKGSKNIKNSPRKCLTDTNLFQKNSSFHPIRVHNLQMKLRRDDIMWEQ
# B1: GFP-PCNT (3132-3336 a.a.), C-terminal region of pericentrin containing the PACT domain (domain or fragment, UniProt O95613 3132-3336)
# chain: MEKLYLHYLRAESFRKALIYQKKYLLLLIGGFQDSEQETLSMIAHLGVFPSKAERKITSRPFTRFRTAVRVVIAILRLRFLVKKWQEVDRKGALAQGKAPRPGPRARQPQSPPRTRESPPTRDVPSGHTRDPARGRRLAAAASPHSGGRATPSPNSRLERSLTASQDPEHSLTEYIHHLEVIQQRLGGVLPDSTSKKSCHPMIKQ
# B2: Cep57L1 (centrosomal protein 57 kDa-like protein 1), full length, FLAG-tagged (protein, UniProt Q8IYX8-1 1-460)
# chain: MDSELMHSIVGSYHKPPERVFVPSFTQNEPSQNCHPANLEVTSPKILHSPNSQALILALKTLQEKIHRLELERTQAEDNLNILSREAAQYKKALENETNERNLAHQELIKQKKDISIQLSSAQSRCTLLEKQLEYTKRMVLNVEREKNMILEQQAQLQREKEQDQMKLYAKLEKLDVLEKECFRLTTTQKTAEDKIKHLEEKLKEEEHQRKLFQDKASELQTGLEISKIIMSSVSNLKHSKEKKKSSKKTKCIKRRPPWQICSKFGALPFVAEKMRQHRDPHILQKPFNVTETRCLPKPSRTTSWCKAIPPDSEKSISICDNLSELLMAMQDELDQMSMEHQELLKQMKETESHSVCDDIECELECLLKKMEIKGEQISKLKKHQDSVCKLQQKVQNSKMSEASGIQQEDSYPKGSKNIKNSPRKCLTDTNLFQKNSSFHPIRVHNLQMKLRRDDIMWEQ
# Columns and labels:
# [1] = molecular target: T1, Cep57L1 mutant lacking the PINC motif (Δ52-86 a.a.), FLAG-tagged (human); assay: co-IP
# [2] = molecular target: T2, Cep57L1 (centrosomal protein 57 kDa-like protein 1), full length, FLAG-tagged (human); assay: co-IP
Binder,binding [1],binding [2]
B1,binds,binds
B2,–,binds
